# Source: paper PMC7819943, “Rice protein-binding microarrays: a tool to detect cis-acting elements near promoter regions in rice”
# The chains behind the UniProt entries cited, without tags or fusion partners.
# UniProt Q0JBA9, entry or part of it: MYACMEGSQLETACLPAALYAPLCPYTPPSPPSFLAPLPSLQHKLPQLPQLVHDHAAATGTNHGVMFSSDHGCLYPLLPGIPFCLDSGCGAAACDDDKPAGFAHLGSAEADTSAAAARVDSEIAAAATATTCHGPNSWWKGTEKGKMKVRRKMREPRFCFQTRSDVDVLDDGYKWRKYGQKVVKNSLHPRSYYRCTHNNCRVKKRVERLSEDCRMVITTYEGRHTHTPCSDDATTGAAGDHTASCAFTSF
# The list shows a part of the results.
# Target: OsWRKY34 (Oryza sativa, UniProt Q0JBA9 1-250)
# Assay: protein-binding microarray (RPBM); PBS, 2% BSA, 51.3 ng/ul salmon testes DNA, 50 uM zinc acetate, 200 nM TF, 25 C, 1 h; high values mean tight binding
# Settings: protein: recombinant; tags: N-terminal polyhistidine and DsRed monomer fusion (pET32a); label: CyDye5-dUTP incorporated in the synthesized complementary strand; 3' TTTTT single-stranded linker to array surface; dsDNA, one strand shown
# Summary of the method: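 Polyhistidine-tagged DsRed fusions of transcription factors, joined at the N-terminus, were expressed in E. coli BL21-CodonPlus and isolated on Ni–NTA. They were incubated at 200 nM for 1 h at 25 °C on a custom Agilent array, double-stranded and BSA-blocked, in PBS with 2% BSA, salmon testes DNA and 50 µM zinc acetate. The binding signal is per-feature fluorescence intensity (arbitrary units) read on an Axon 4000B scanner after washing.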
row,Sequence,binding signal
1,CCCAGCTGCGTTTTTTTTAACCCCTCGCCCTTCTATAAATCGGAGTCACCTAGTGCAG,9250 fluorescence intensity (a.u.)
2,GCAACGTTTCTTGGCTCTGCTGTTGTCTCCCCGCTTTAATCGGAGTCACCTAGTGCAG,8750 fluorescence intensity (a.u.)
3,CCTAAATGTTTGACTCCGTTGACTTTTTTAAACATGTCTGCGGAGTCACCTAGTGCAG,26100 fluorescence intensity (a.u.)
4,TCTGTTCTCTTGTGCATTCTGTTTTTTCTAATCGTACACCCGGAGTCACCTAGTGCAG,10700 fluorescence intensity (a.u.)
5,ACACACATGATCCGGCTTCCAATCAACACGATCCAAACCCCGGAGTCACCTAGTGCAG,8410 fluorescence intensity (a.u.)
6,CACCCCTATCTGCTACATTACTACTCCCTCCGTCCCATAACGGAGTCACCTAGTGCAG,8930 fluorescence intensity (a.u.)
7,AACACAGATCACCCAAATATGCGACTACTGTTGAAGTCTTCGGAGTCACCTAGTGCAG,8160 fluorescence intensity (a.u.)
8,GATCCGACCAACTCACCACCACCCGCAGCGCCGCCACCGGCGGAGTCACCTAGTGCAG,8160 fluorescence intensity (a.u.)
9,CTTCTCCTTTTCGATCAATCAGTCTCTTTCTCTTTGTCATCGGAGTCACCTAGTGCAG,8370 fluorescence intensity (a.u.)
10,AGTCCATGTATGTTCGCTACTTCGCTTGCGTCTCGACAACCGGAGTCACCTAGTGCAG,11200 fluorescence intensity (a.u.)
11,TTTTTATTAGTGCCCGAACATCCCATGCGATACCCTATGTCGGAGTCACCTAGTGCAG,9260 fluorescence intensity (a.u.)
12,AAACCTTCCGTATTGCCTATGAGACAGGTTAGTTATCCTCCGGAGTCACCTAGTGCAG,8320 fluorescence intensity (a.u.)
13,TTGGAGCGGTTTTGTCTTCTCGCACAGGCATGTTGGAGCTCGGAGTCACCTAGTGCAG,11000 fluorescence intensity (a.u.)
14,TTTCTTTCAACAATTCAACACAACACACTACCCTGTCTTTCGGAGTCACCTAGTGCAG,8040 fluorescence intensity (a.u.)
15,CGCCATTTTACGCCTCACTCTCCTCCTCCACCTCCACCACCGGAGTCACCTAGTGCAG,9840 fluorescence intensity (a.u.)
16,TACTCCTAGTCCAGTTTTTATGCACTAATGAATTTCTCTACGGAGTCACCTAGTGCAG,8350 fluorescence intensity (a.u.)
17,CTCCTCTTCGTCTCCATCGCCATCCACCGCGCCGTCGCCCCGGAGTCACCTAGTGCAG,8070 fluorescence intensity (a.u.)
18,CCTGCAAGCCTCTGCCTCAACCACCACATCCCAGCCGCCACGGAGTCACCTAGTGCAG,9000 fluorescence intensity (a.u.)
19,ATTACTTTCTGTTATTTATGTATTTGGAGTTTTGTTTGTACGGAGTCACCTAGTGCAG,9390 fluorescence intensity (a.u.)
20,TCCTCGCGTACTGTTTTATTGGTCTATCCGCGATCAGTGGCGGAGTCACCTAGTGCAG,8290 fluorescence intensity (a.u.)
21,GAGGGATGATCCATTTTGACTAGCACAGTCTCTTGCCCCTCGGAGTCACCTAGTGCAG,8410 fluorescence intensity (a.u.)

# A section taken from the entries so far, as a working copy:
row,Sequence,binding signal
18,CCTGCAAGCCTCTGCCTCAACCACCACATCCCAGCCGCCACGGAGTCACCTAGTGCAG,9000 fluorescence intensity (a.u.)
19,ATTACTTTCTGTTATTTATGTATTTGGAGTTTTGTTTGTACGGAGTCACCTAGTGCAG,9390 fluorescence intensity (a.u.)

# Continuation.

row,Sequence,binding signal
1,CATTCCCCTGCCAGATCCAACGCCATTGGTCAACGACCTGCGGAGTCACCTAGTGCAG,8430 fluorescence intensity (a.u.)
2,CGATTATTTCACTAGAGGCAACCATACTGCTACCAAATCCCGGAGTCACCTAGTGCAG,10200 fluorescence intensity (a.u.)
3,CCGTAATTATTTTTTCTTTGACCGTGTCGTGCCGGCTAACCGGAGTCACCTAGTGCAG,10700 fluorescence intensity (a.u.)
4,CGTCCAACCCACAACCTTCGTCCGCACACGTTTCCCGATACGGAGTCACCTAGTGCAG,8330 fluorescence intensity (a.u.)
5,CGTCTCCTCCGCTTTTTGCTTCGCCATTTGATTTTTTTGCCGGAGTCACCTAGTGCAG,8620 fluorescence intensity (a.u.)
6,TAGCTCGTGCCTGTCTGGTCCGGCCAGCCCTGCGTTCCCGCGGAGTCACCTAGTGCAG,8890 fluorescence intensity (a.u.)
7,TACATCATTCCAAATATTGTTAAATTTAAAGTTCATCCATCGGAGTCACCTAGTGCAG,8580 fluorescence intensity (a.u.)
8,CTTGTGTTGGCTGTTGTTGTGTGTGTGCTGTCGTTTTCTTCGGAGTCACCTAGTGCAG,9340 fluorescence intensity (a.u.)
9,CCCCTTCTCACACTATACCGATACTCCAATATTTCTTTTCCGGAGTCACCTAGTGCAG,9770 fluorescence intensity (a.u.)
10,GTTCCACCCCTCGCCGCCGCCGGCTTCCTCTGGGCCCTCTCGGAGTCACCTAGTGCAG,11700 fluorescence intensity (a.u.)
11,CTGTGCCAGGGAGAGAGGTTTCATTCCTTTTTATGTGTTTCGGAGTCACCTAGTGCAG,9400 fluorescence intensity (a.u.)
12,TCTCTCTGCGACAGCCATCGCCACCGACTTCTTCGTCTTCCGGAGTCACCTAGTGCAG,8520 fluorescence intensity (a.u.)
13,TATTCCTTATTTTTTAATTCCGAATTTCAGCTATTTCTAACGGAGTCACCTAGTGCAG,11000 fluorescence intensity (a.u.)
14,GTGTCATGTCGTGCTTGGGTCGGGCCGTCGGGCCTCGAGACGGAGTCACCTAGTGCAG,10900 fluorescence intensity (a.u.)
15,AGACACCTACTCCTACTAGTACTAGTACTACCACCATCTCCGGAGTCACCTAGTGCAG,9060 fluorescence intensity (a.u.)
16,CCCAGTTTTTGCACTAGTTTAGCATTAGTACTTAATTTCACGGAGTCACCTAGTGCAG,8280 fluorescence intensity (a.u.)
17,CGCTGATCTCCAGTTCTCTAACATTCTACCTCTTCCAGGTCGGAGTCACCTAGTGCAG,8440 fluorescence intensity (a.u.)
18,GATAATATGTTTGTTTTGTATTGCAAATATTGTTATATTTCGGAGTCACCTAGTGCAG,8720 fluorescence intensity (a.u.)
19,ATCCACTCCATCGCCGCCGATGCTCAGCTCGCTACTCGTCCGGAGTCACCTAGTGCAG,8930 fluorescence intensity (a.u.)
20,TCTTACTCTGATGTTTGCTTGGTTTGCTTTGCGTTTTCTTCGGAGTCACCTAGTGCAG,14600 fluorescence intensity (a.u.)
21,CTTTGTGATTAATTAATGTGCAACATAGTTTGGTTAATTCCGGAGTCACCTAGTGCAG,8320 fluorescence intensity (a.u.)

row,Sequence,binding signal
1,TAACCTATCGCAGTTGCTTTTGTTAATCTATGCACTTCACCGGAGTCACCTAGTGCAG,8330 fluorescence intensity (a.u.)
2,GACGCTGATCCCGCCTGTCCCACCTGTCCACCACGCCGCGCGGAGTCACCTAGTGCAG,8530 fluorescence intensity (a.u.)
3,ACTGTTCATTGTTGATGGCCTTTTCCAAAAACTAGAAAAGCGGAGTCACCTAGTGCAG,8460 fluorescence intensity (a.u.)
4,CCGTTCTATATTATACTCCCTCCGTTCTTAGATATTTGACCGGAGTCACCTAGTGCAG,10300 fluorescence intensity (a.u.)
5,ATGCAGTCGTGTGTTTCTATATCCAACGTTTGACTATCTTCGGAGTCACCTAGTGCAG,11800 fluorescence intensity (a.u.)
6,AACCTCCCCACCTCACGCGTCTGCCACTCCGGCGAGATATCGGAGTCACCTAGTGCAG,8560 fluorescence intensity (a.u.)
7,ATTTGGTTCAGTGATTGTTTCTTGCCCTGTGATTGTCCCACGGAGTCACCTAGTGCAG,10100 fluorescence intensity (a.u.)
8,CTCCTCCTCTCTTCCCTTTCACTTGGCCGTCGTCTCCTCCCGGAGTCACCTAGTGCAG,9320 fluorescence intensity (a.u.)
9,CACCATAGATGTCCACGACATTTACTTCTCGTTTGCTCTACGGAGTCACCTAGTGCAG,8900 ± 499 fluorescence intensity (a.u.)
10,ATGGTAAAACATGTGATAAAAAGTCAACGGCGGTCAAACACGGAGTCACCTAGTGCAG,13000 fluorescence intensity (a.u.)
11,CTCTGTCTCTTGCTCTCACGCACTGTGTTCTTCGTTTTCTCGGAGTCACCTAGTGCAG,13500 fluorescence intensity (a.u.)
12,GGTAATGAGAACGAACGCCACCGCGACCACACACAGAACCCGGAGTCACCTAGTGCAG,8280 fluorescence intensity (a.u.)
13,GCTTTTCTCTACTACCTTTTCCACTGTTGCGAAGTCGGGTCGGAGTCACCTAGTGCAG,8310 fluorescence intensity (a.u.)
14,TTTGTCCCGTGGTTTTTCATTCCTTACACTGAGAAGGTTTCGGAGTCACCTAGTGCAG,8790 fluorescence intensity (a.u.)
15,CTCCATGACTAATCCTCTTCTCTCTTTTTGTTGTCTTTATCGGAGTCACCTAGTGCAG,8180 fluorescence intensity (a.u.)
16,CGTTCTTCACCGAGCTCTTCACGTGTTCTTCGTGTTCTTGCGGAGTCACCTAGTGCAG,9550 fluorescence intensity (a.u.)
17,CTCTCGAACACGTGGCTTTGTCTCATCTCTTAGATCTTCACGGAGTCACCTAGTGCAG,13900 fluorescence intensity (a.u.)
18,TGGTGTGCTTCTTCACTGTCGCCATGTCGCAATGCGCGGCCGGAGTCACCTAGTGCAG,9590 fluorescence intensity (a.u.)
19,GTTGGGGAGCGGGGTGTGTGTGCCAGGCGCTCGGGCGGGGCGGAGTCACCTAGTGCAG,19500 fluorescence intensity (a.u.)
20,CGCAAGACCACGACTCAACTAGTTTATTCTTCCAATCTTTCGGAGTCACCTAGTGCAG,8610 fluorescence intensity (a.u.)
21,GGTTATGTCTCTGTTGCTGTTTAATTTGCTGATGTCTCTGCGGAGTCACCTAGTGCAG,12800 fluorescence intensity (a.u.)

# An excerpt of these results, bar-delimited.
row | Sequence | binding signal
19 | GTTGGGGAGCGGGGTGTGTGTGCCAGGCGCTCGGGCGGGGCGGAGTCACCTAGTGCAG | 19500 fluorescence intensity (a.u.)
20 | CGCAAGACCACGACTCAACTAGTTTATTCTTCCAATCTTTCGGAGTCACCTAGTGCAG | 8610 fluorescence intensity (a.u.)

# Next part:

row,Sequence,binding signal
1,CCATCAGCATATAGTTCTATTCTATACACTTTCTTCATCCCGGAGTCACCTAGTGCAG,9300 fluorescence intensity (a.u.)
2,AGTTTCGTTCTCCTTCGCTCGCATTGCTGGTTGGGGTTCGCGGAGTCACCTAGTGCAG,10100 fluorescence intensity (a.u.)
3,ACCGAAATTTTGTTCTGTTGTTACTATTGGTAGTTAGTTTCGGAGTCACCTAGTGCAG,12000 fluorescence intensity (a.u.)
4,GACTTCCGAGCCACCGTCGTCCCTCGCTAACTTCGCATCACGGAGTCACCTAGTGCAG,10500 fluorescence intensity (a.u.)
5,TCGGTCTCTCGCCCCGCGCCCTCACGTTGTCACGTACAAACGGAGTCACCTAGTGCAG,10500 fluorescence intensity (a.u.)
6,TATTTTTTTCCGCCACGCGCTCGAGACTTTGCTTCTTTCACGGAGTCACCTAGTGCAG,14700 fluorescence intensity (a.u.)
7,TGTTAGGTTGGTTTTTTATTTTTTTTATTGTTTTTTTTACCGGAGTCACCTAGTGCAG,11900 fluorescence intensity (a.u.)
8,ACGGTGTTGCTGCTTGTATTTGTGTCTGTGTGTGTGTTTTCGGAGTCACCTAGTGCAG,10100 fluorescence intensity (a.u.)
9,ACTACCACCACCACCACCACCACCTGCTTCCTCCGCGGCTCGGAGTCACCTAGTGCAG,9640 fluorescence intensity (a.u.)
10,GACATGTGTTCGTTGTGTTTAAACTAGGAATCGGCGATACCGGAGTCACCTAGTGCAG,8400 fluorescence intensity (a.u.)
11,TCGCACATCGCTTCACGTAATCTACCGTAAATGTACTTTCCGGAGTCACCTAGTGCAG,8200 fluorescence intensity (a.u.)
12,CATGCCGGGCGGTCAATTTGACCATCTATATACCTTCGGTCGGAGTCACCTAGTGCAG,10500 fluorescence intensity (a.u.)
13,AGGGCATGTATCTTCAAAAAAGGTTTTCAAATTTGATTCTCGGAGTCACCTAGTGCAG,9240 fluorescence intensity (a.u.)
14,ATCCCGTTTTAGGCACAGCCTAAGTCTCTGTCAACATCCTCGGAGTCACCTAGTGCAG,8100 fluorescence intensity (a.u.)
15,GCTTGACTTCTTCATTCCTCAATCTCCTAACAACCATCACCGGAGTCACCTAGTGCAG,9230 fluorescence intensity (a.u.)
16,AACGGGGCTTTTAACTATTTATCACTTGTAGATTTGGCAACGGAGTCACCTAGTGCAG,8640 fluorescence intensity (a.u.)
17,CATATCATGGTAGACCATTTCTTGACTACATCTTAGCTCTCGGAGTCACCTAGTGCAG,12600 fluorescence intensity (a.u.)
18,CGCCGGAGCCGCCTCACCCTACCCGCCGCTGCCTGCTTCCCGGAGTCACCTAGTGCAG,8350 fluorescence intensity (a.u.)
19,GGGTGAGTGTGTGTTGTGCGTTGTGAGTGTGTATGTGTTTCGGAGTCACCTAGTGCAG,17200 fluorescence intensity (a.u.)
20,TGAATCTTCTTGTGTTGTCTTGTGCGGGTCATTCAGAAAACGGAGTCACCTAGTGCAG,11500 fluorescence intensity (a.u.)
21,GCATATCCTTCTCATTGTCTGCACATATTCTTATCAAATACGGAGTCACCTAGTGCAG,15100 fluorescence intensity (a.u.)
